Results are given in words; binding and its absence hold for the method and conditions named. In cells and extracts the contact can be indirect. Here binding means that the protein was enriched with, or labelled near, the bait; the list need not be complete. Tags and fused reporters may be left off the sequences shown.
Columns and labels:
Experiment in all cases: affinity purification with mass spectrometry; IP-SILAC: GFP-Trap beads on whole-cell extracts of HEK293 Flp-In T-REx cells (GFP-SRP19, GFP-SRP9, GFP-SRP14) or U2OS Flp-In T-REx cells (GFP-SRP72) induced 3 h, against parental cells; HNT buffer (20 mM Hepes pH 7.4, 150 mM NaCl, 0.5% Triton X-100), 1.5 h at 4°C; positive: SILAC ratio above 1
GFP-SRP14 (human) = GFP-SRP14 (human) (UniProt P37108)
GFP-SRP19 (human) = target: T1, GFP-SRP19 (human) (UniProt P09132)
T1 sequence: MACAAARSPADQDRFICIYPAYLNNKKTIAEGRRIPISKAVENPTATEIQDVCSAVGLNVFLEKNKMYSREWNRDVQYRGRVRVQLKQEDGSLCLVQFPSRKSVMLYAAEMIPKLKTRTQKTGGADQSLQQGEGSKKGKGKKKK

Sequences of proteins named here, by UniProt entry; tags and fusion partners are left off.
UniProt Q8N3C0: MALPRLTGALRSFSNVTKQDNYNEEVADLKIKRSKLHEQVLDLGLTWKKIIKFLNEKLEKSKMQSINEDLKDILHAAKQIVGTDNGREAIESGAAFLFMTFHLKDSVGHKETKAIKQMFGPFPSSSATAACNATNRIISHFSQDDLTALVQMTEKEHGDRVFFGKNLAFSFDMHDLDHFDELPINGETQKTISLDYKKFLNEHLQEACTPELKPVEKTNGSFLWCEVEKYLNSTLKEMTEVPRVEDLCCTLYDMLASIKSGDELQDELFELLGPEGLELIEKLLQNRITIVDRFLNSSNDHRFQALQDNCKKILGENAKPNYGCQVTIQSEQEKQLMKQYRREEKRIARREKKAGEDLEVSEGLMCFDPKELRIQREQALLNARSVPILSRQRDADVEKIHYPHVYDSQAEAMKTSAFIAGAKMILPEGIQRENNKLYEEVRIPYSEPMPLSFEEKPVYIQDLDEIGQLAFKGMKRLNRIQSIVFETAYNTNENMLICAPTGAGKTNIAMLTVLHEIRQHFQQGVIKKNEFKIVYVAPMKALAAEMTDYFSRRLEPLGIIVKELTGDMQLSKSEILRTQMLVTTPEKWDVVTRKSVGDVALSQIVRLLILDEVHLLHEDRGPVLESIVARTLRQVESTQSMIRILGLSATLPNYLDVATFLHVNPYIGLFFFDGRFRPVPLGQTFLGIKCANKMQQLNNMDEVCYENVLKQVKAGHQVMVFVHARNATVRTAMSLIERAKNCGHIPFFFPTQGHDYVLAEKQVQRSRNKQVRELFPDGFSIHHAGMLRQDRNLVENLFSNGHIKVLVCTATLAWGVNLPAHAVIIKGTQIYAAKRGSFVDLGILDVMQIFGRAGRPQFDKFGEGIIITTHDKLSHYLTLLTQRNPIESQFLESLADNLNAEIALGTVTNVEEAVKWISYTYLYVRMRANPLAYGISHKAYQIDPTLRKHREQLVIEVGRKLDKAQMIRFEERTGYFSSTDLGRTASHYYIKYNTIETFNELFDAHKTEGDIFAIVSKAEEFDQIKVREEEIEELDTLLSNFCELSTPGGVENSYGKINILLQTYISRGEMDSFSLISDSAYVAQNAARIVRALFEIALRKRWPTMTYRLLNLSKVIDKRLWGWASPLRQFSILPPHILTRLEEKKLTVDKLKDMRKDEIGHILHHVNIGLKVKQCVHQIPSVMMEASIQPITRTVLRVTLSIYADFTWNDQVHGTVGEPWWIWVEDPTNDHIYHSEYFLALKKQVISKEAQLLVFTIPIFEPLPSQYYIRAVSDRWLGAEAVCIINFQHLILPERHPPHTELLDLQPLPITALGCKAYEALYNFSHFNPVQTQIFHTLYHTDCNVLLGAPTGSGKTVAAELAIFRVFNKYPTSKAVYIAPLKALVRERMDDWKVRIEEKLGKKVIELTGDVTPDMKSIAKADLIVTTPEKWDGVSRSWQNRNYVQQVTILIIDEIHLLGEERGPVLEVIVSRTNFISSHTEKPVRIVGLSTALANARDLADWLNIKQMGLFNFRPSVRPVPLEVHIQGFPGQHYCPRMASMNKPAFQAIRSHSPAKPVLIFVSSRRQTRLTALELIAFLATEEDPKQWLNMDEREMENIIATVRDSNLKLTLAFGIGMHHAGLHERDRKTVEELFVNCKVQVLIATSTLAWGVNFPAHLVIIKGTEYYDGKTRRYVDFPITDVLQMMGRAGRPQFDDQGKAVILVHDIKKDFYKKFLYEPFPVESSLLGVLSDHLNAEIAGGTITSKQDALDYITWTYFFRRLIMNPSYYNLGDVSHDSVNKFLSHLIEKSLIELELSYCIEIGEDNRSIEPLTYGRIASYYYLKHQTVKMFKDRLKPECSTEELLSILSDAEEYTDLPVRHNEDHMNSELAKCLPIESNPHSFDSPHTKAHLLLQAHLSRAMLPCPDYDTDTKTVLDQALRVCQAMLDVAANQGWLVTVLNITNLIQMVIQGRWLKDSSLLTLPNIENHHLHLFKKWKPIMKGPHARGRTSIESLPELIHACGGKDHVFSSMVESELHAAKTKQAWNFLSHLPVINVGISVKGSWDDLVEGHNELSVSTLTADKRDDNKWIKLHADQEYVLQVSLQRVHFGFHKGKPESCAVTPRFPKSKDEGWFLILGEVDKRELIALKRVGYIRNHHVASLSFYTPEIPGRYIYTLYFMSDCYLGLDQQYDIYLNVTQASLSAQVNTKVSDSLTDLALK
UniProt P61011: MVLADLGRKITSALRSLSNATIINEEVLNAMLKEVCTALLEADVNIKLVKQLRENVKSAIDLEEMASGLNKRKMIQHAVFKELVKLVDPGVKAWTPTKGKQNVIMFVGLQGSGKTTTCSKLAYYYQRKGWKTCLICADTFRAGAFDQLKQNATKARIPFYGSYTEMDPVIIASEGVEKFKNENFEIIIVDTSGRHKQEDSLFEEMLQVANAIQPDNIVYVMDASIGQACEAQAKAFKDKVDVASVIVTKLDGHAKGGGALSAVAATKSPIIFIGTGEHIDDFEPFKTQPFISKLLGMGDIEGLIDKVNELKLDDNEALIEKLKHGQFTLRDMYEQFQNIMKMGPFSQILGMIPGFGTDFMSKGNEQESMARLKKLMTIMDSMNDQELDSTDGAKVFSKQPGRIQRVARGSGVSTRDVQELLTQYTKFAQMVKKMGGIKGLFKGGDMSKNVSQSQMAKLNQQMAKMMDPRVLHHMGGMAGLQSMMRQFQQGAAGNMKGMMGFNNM
UniProt Q07065: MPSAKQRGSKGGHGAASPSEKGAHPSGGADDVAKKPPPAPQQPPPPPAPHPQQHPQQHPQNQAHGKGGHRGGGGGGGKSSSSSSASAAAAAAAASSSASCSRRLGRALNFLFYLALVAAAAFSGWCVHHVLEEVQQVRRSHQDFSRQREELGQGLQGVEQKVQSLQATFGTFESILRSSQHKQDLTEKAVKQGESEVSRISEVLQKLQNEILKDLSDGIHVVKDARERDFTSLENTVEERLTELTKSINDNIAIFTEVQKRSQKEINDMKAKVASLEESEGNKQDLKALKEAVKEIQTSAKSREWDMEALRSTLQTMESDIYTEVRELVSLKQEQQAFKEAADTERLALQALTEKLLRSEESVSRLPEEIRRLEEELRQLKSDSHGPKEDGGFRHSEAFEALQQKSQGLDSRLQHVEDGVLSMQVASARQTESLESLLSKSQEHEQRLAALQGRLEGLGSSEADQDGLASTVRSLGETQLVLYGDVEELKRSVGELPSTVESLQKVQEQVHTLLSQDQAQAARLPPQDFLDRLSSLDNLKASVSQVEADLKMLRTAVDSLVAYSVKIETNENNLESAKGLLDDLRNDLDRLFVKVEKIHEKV
UniProt Q7KZF4: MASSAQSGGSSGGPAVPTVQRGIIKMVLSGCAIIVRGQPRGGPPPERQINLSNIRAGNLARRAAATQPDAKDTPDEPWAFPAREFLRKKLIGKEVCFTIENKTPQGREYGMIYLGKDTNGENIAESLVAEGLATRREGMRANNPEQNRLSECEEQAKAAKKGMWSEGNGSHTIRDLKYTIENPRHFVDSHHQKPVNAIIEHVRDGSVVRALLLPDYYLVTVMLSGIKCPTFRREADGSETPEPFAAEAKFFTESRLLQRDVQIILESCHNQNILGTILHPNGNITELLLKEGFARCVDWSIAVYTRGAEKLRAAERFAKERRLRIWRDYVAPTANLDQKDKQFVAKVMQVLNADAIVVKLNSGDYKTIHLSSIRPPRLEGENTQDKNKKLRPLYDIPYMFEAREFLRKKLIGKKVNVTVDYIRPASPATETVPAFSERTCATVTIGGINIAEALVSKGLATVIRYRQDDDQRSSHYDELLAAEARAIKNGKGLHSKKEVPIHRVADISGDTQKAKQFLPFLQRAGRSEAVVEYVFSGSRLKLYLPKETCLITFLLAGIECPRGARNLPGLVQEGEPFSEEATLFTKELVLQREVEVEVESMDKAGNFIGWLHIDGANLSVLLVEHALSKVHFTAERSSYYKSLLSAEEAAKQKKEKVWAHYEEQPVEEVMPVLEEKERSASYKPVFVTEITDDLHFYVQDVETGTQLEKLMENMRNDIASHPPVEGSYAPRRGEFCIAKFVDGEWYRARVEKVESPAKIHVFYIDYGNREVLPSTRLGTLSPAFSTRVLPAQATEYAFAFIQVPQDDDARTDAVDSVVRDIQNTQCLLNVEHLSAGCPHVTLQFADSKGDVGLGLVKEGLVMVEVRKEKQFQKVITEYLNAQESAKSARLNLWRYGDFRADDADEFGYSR
UniProt O94822: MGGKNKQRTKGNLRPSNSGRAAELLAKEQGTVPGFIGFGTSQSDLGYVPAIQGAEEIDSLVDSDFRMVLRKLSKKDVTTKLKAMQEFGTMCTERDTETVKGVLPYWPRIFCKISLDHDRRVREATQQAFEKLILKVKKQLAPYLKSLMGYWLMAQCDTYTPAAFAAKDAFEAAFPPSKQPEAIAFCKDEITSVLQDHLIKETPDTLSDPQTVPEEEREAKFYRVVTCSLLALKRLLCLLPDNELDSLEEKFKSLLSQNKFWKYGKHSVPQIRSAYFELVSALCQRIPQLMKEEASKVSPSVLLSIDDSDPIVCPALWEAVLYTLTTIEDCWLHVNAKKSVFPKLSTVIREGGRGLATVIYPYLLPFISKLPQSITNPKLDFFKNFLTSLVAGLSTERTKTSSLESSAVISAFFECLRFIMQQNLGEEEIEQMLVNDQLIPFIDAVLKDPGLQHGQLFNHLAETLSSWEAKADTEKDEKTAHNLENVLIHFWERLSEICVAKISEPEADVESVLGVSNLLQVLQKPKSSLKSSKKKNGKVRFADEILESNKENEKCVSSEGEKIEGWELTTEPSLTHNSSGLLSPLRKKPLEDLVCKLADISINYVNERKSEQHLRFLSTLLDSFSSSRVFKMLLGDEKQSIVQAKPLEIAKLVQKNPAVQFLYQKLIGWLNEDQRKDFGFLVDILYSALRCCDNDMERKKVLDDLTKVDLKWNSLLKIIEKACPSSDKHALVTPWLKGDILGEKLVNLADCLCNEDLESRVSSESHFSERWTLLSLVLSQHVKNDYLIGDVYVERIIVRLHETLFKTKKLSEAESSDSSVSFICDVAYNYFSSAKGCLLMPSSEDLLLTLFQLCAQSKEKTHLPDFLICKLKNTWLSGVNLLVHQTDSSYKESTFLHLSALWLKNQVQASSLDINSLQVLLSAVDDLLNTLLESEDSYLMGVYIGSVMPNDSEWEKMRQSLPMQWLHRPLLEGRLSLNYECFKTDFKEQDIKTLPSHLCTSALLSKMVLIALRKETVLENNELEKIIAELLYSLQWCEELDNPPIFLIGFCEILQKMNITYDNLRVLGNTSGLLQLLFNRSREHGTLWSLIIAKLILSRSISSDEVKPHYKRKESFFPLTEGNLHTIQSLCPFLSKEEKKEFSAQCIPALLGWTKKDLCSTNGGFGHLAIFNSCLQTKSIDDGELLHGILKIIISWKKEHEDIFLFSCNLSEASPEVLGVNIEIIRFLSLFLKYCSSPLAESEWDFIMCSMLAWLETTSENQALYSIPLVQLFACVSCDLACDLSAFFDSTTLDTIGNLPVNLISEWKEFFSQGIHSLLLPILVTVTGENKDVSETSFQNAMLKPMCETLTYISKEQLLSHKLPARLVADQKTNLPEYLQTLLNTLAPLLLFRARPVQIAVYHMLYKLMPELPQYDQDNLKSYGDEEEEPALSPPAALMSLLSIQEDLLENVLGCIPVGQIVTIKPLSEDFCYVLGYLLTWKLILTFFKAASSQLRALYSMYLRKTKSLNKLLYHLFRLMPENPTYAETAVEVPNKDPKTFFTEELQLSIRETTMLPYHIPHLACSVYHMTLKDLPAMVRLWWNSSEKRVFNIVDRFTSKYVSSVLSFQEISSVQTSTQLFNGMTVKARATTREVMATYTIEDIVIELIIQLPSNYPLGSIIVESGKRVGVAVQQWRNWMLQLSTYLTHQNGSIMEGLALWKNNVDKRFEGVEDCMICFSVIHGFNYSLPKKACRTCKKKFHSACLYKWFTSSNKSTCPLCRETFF

GFP-SRP72 (human) = target: T2, GFP-SRP72 (human) (UniProt O76094)
T2 sequence: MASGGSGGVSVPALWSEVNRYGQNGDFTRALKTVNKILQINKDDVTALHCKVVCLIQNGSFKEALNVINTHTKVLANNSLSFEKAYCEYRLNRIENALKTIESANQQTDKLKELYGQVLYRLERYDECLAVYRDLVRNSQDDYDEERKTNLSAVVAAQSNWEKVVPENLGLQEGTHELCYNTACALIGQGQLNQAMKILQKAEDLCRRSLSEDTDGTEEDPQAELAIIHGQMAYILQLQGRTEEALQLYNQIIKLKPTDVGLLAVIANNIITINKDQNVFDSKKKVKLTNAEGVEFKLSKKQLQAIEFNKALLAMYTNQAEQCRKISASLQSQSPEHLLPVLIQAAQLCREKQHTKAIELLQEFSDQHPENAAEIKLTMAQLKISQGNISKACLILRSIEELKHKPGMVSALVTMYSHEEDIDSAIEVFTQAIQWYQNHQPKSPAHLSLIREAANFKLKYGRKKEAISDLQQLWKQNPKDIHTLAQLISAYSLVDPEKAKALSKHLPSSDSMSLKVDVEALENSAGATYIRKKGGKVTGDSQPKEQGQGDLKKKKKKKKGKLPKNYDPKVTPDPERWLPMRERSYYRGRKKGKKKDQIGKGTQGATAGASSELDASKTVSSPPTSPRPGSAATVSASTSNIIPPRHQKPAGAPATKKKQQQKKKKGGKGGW

GFP-SRP9 (human) = GFP-SRP9 (human) (UniProt P49458)

binding (GFP-SRP14 (human))	binding (GFP-SRP19 (human))	binding (GFP-SRP72 (human))	binding (GFP-SRP9 (human))	Substance
binds	binds	binds	–	ASCC3 (from UniProt Q8N3C0 1-2202)
–	binds	–	binds weakly	SRP54 (from UniProt P61011 1-504)

Further lines, the substance ahead of its results:

Substance	binding (GFP-SRP14 (human))	binding (GFP-SRP19 (human))	binding (GFP-SRP72 (human))	binding (GFP-SRP9 (human))
CKAP4 (from UniProt Q07065 1-602)	binds	binds	binds	binds
SND1 (from UniProt Q7KZF4 1-910)	–	binds	binds	–
listerin (from UniProt O94822 1-1766)	binds	binds	binds	–
